Assay results reported in article PMC10613268, “Shade-induced RTFL/DVL peptides negatively regulate the shade response by directly interacting with BSKs in Arabidopsis” (Nature Communications, 2023).
Residue numbers refer to the chain shown, from its start. Names and notes keep the numbering of the source. Results are given in words; binding and its absence hold for the method and conditions named. For some assays here: Binding seen in cells or lysates may run through a third protein. Some binding calls cover weakened binding; strength is not graded here. Where a sequence is shown, tags or fusion partners need not be part of it.

Sequences of proteins named here, by UniProt entry; tags and fusion partners are left off.
UniProt Q8W4L3: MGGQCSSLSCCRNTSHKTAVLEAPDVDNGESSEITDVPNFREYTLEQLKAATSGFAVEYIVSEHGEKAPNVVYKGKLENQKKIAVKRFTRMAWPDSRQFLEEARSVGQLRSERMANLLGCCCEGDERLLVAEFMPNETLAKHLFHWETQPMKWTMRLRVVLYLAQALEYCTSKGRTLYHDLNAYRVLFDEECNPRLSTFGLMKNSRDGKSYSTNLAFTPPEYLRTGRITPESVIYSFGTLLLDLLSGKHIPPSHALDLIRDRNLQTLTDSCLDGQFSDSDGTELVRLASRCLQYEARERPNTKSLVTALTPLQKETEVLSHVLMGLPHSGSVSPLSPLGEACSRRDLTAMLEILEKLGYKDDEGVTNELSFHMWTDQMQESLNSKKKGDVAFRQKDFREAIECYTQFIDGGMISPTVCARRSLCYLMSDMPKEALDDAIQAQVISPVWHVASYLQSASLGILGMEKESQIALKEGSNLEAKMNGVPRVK
UniProt Q9M324: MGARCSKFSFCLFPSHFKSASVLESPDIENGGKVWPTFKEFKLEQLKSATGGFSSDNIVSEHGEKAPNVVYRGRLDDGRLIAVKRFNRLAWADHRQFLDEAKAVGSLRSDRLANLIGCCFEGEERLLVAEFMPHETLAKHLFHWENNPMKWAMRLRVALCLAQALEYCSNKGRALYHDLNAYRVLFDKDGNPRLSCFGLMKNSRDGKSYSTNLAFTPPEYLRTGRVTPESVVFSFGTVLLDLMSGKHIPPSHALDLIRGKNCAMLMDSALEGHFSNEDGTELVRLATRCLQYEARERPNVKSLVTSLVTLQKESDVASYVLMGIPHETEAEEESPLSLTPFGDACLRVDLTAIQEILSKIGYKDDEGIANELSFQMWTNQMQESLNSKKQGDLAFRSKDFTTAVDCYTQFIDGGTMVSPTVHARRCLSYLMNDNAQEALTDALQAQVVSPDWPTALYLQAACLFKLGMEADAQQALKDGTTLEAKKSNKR

What was measured:
GST-RTFL18 (Arabidopsis) = target: T1, GST-RTFL18 (Arabidopsis) (UniProt Q6X5V0); experiment: pull-down; semi-in vivo: purified GST or GST-RTFL18 mixed with extract of N. benthamiana leaves expressing BSK3/BSK6-Flag, glutathione-agarose beads, 4 °C 2 h; blot anti-Flag, anti-GST; only the target purified
T1 sequence: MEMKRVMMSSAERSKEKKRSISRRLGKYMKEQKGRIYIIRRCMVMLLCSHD

BSK3-cYFP (Arabidopsis) = BSK3-cYFP (Arabidopsis) (UniProt Q8W4L3); experiment: split reporter; BiFC with split YFP in tobacco leaves; nYFP-RTFL18 with BSK-cYFP; confocal microscopy
BSK6-cYFP (Arabidopsis) = BSK6-cYFP (Arabidopsis) (UniProt Q9M324); experiment: as above
[1] = target: BSK6-GFP (transient in N. benthamiana) (Arabidopsis) (UniProt Q9M324); experiment: co-IP; N. benthamiana leaves transiently co-expressing Flag-RTFL18 with GFP, BSK3-GFP or BSK6-GFP; IP with anti-GFP affinity beads, 2 h 4 °C; blot anti-Flag, anti-GFP
[2] = target: BSK3-GFP (transient in N. benthamiana) (Arabidopsis) (UniProt Q8W4L3); experiment: as above
[3] = target: BSK3-GFP (Arabidopsis Flag-RTFL18*BSK3-GFP line) (Arabidopsis) (UniProt Q8W4L3); experiment: co-IP; Arabidopsis Flag-RTFL18*BSK3-GFP and Flag-RTFL18*BSK6-GFP plants, white light or low R:FR for 1 h; IP with anti-GFP affinity beads, 2 h 4 °C; blot anti-Flag, anti-GFP
[4] = target: BSK6-GFP (Arabidopsis Flag-RTFL18*BSK6-GFP line) (Arabidopsis) (UniProt Q9M324); experiment: as above
GST-BSK3 WT = target: T2, GST-BSK3 WT (Arabidopsis, UniProt Q8W4L3 1-489); experiment: pull-down; in vitro (Fig. 4l): purified GST-BSK3 WT on glutathione beads, then His-RTFL18 (WT, M1, M2), 4 °C 2 h, 1 × PBS with 1 mM DTT; blot anti-His, anti-GST; both purified
T2 construct: BSK3, Arabidopsis; full-length coding region cloned into pGEX4-T-1; source: E. coli BL21 (DB3), purified; not shown: GST, N-terminal, kept

BSK3-nLuc (Arabidopsis) = BSK3-nLuc (Arabidopsis) (UniProt Q8W4L3); experiment: split reporter; luciferase complementation imaging (LCI) in N. benthamiana leaves; BSK-nLuc with cLuc-RTFL; CCD imaging
BSK6-nLuc (Arabidopsis) = BSK6-nLuc (Arabidopsis) (UniProt Q9M324); experiment: as above

Molecule: BSK3-Flag (from UniProt Q8W4L3 1-489)
- binding (GST-RTFL18 (Arabidopsis)): binds

Molecule: BSK6-Flag (from UniProt Q9M324 1-490)
- binding (GST-RTFL18 (Arabidopsis)): binds

B1: nYFP-RTFL18 (peptide, UniProt Q6X5V0 1-51)
chain: T1 sequence
- binding (BSK3-cYFP (Arabidopsis)): binds
- binding (BSK6-cYFP (Arabidopsis)): binds

B2: Flag-RTFL18 (transient in N. benthamiana) (peptide, UniProt Q6X5V0 1-51)
chain: T1 sequence
- binding [1]: binds
- binding [2]: binds

B3: Flag-RTFL18 (Arabidopsis 35S::Flag-RTFL18 lines) (peptide, UniProt Q6X5V0 1-51)
chain: T1 sequence
- binding [3]: binds
- binding [4]: binds

B4: His-RTFL18 M1 (I39A, M43A, L47A) (peptide, UniProt Q6X5V0 1-51)
chain: T1 sequence with I39A, M43A, L47A
- binding (GST-BSK3 WT): binds weakly

B5: cLuc-RTFL18 (peptide, UniProt Q6X5V0 1-51)
chain: T1 sequence
- binding (BSK3-nLuc (Arabidopsis)): binds
- binding (BSK6-nLuc (Arabidopsis)): binds
